Laboratory results as given in patent publication US20070191325A1, “Methods for altering insulin secretion” (priority 2004, published 2007).
“Also recorded” adds a separate entry of the source. At least one compound was matched to its structure with a doubt left.

What was measured:
[1] = tested on: SGK1 transcript levels in INS-1 cells; test: Real time PCR of SGK1 mRNA in INS-1 cells; format: cell-based, rat; details: 100 nM dexamethasone for 2 to 23 hours
[2] = tested on: voltage gated outward current (Kv channels) in INS-1 cells; test: Patch clamp measurement of whole cell outward current in INS-1 cells; format: cell-based, rat; details: 100 nM dexamethasone for 4 h
Description: Cells were treated prior to the experiment with 100 nm dexamethasone for 4 h. (2A) whole cell current was induced by 200 ms voltage pulses increasing by 10 mv steps from −70 mv to +50 mv. (2B) Sensitivity to 4-ap (0.1 and 1 mm) and tea (1 and 10 mm) was tested in cells before (black columns) and after dexamethasone treatment (white columns). Voltage pulses of 200 ms duration from −70 to 50 mv were applied. Shown are means±sem for the indicated number of experiments. * denotes significance (p<0.05) to current in control, non treated cells at the same inhibitor concentration. Ins-1 cells were cultured as described before (Abel et al., 1996; Asfari et al., 1992). The external patch clamp solution contained (in mmol/l): 140 NaCl, 5.6 KCl, 1.2 MgCl2, 2.6 CaCl2, 0.5 glucose and 10 HEPES, PH 7.4. The internal solution contained (in mmol/l): 30 KCL, 95 K^+-gluconate, 1 MgCl2, 1.2 NaH2PO4, 4.8 Na2HPO4, 5 Na2ATP, 1 Na3GTP, 5 mmol/l EGTA, PH 7.2. An Epc9 Patch Clamp Amplifier (Heka Electronic, Lambrecht, Germany) Was Used For Current Measurements.
INS-1 cells were cultured for 2-4 days on glass cover slips coated with poly-L-ornithine (10 mg/l Sigma, Munich, Germany) at appropriate cell densities (1.2×10^6 cells/ml). […] The patch clamp pipettes (Clark-Medical, Reading, Great Britain) with a resistance of 4-6 MΩ were pulled using a DMZ-universal puller (Zeitz, Augsburg, Germany). […]

[3] = tested on: SGK1 transcript levels in mouse islets; test: Real time PCR of SGK1 transcript in isolated mouse islets; format: cell-based; details: within 23 hours
[4] = tested on: isolated pancreatic islets; test: Insulin secretion of islets isolated from sgk1+/+ and sgk1-/- mice; format: cell-based, mouse

C[C@@H]1C[C@H]2[C@@H]3CCC4=CC(=O)C=C[C@]4(C)[C@@]3(F)[C@@H](O)C[C@]2(C)[C@@]1(O)C(=O)CO [dexamethasone]
SGK1 mRNA transcript levels [1]: increased mRNA transcript levels | effect on 4-AP sensitive voltage gated outward current [2]: increase | cellular SGK1 transcript levels in mouse islets [3]: increased | effect on insulin release of islets from SGK1 knockout mice ([4]; SGK1 knockout mice islets): significantly attenuated; also recorded: did not affect secretion | effect on insulin secretion stimulated by glucose, forskolin or PMA, sgk1+/+ versus sgk1-/- islets ([4]; glucose 16.7 mM, 5 μM forskolin, 100 nM PMA, dexamethasone pretreatment): decreased the stimulatory effect of glucose, forskolin or PMA on insulin secretion significantly more | glucose induced insulin release of islets from wild type mice ([4]; wild type mice islets): virtually abolishes
